These results are taken from doi:10.1101/2022.06.14.495942 (bioRxiv, 2022).

Read-outs that look alike come from different tables or passages of the source. These are yes or no findings as the source states them, for the method shown. Some results given as binding are weak or reduced against the parent protein; the word gives no strength. For some assays here: Sequences can lack the tags named with a protein.

For assay [1], the target named is T1, 5xmyc-LFY, in vitro-produced Full Length (FL) LFY (Arabidopsis thaliana) (UniProt Q00958).
T1 sequence: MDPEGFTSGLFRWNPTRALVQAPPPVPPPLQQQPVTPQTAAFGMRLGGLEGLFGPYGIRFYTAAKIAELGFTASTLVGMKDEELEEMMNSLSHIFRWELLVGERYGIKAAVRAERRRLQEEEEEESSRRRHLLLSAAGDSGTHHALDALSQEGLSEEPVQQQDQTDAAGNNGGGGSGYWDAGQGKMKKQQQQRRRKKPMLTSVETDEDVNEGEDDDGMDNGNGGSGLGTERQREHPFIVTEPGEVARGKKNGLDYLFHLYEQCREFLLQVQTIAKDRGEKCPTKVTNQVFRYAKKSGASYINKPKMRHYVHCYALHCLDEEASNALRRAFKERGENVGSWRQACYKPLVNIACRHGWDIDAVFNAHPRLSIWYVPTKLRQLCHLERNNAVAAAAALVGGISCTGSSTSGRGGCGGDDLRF
Put plainly: native gel or EMSA. (In general: Mobility shift assays separate free from complexed probe on a gel.)

The target in assay [2] is T1, 5xmyc-LFY, in vitro-produced Full Length (FL) LFY (Arabidopsis thaliana). Nature of the assay: native gel or EMSA. The source holds these as a separate data set.
Assay [3] addresses T2, UFO in the purified ASK1-UFO-LFY-DBD complex (Arabidopsis thaliana) (UniProt Q39090).
T2 sequence: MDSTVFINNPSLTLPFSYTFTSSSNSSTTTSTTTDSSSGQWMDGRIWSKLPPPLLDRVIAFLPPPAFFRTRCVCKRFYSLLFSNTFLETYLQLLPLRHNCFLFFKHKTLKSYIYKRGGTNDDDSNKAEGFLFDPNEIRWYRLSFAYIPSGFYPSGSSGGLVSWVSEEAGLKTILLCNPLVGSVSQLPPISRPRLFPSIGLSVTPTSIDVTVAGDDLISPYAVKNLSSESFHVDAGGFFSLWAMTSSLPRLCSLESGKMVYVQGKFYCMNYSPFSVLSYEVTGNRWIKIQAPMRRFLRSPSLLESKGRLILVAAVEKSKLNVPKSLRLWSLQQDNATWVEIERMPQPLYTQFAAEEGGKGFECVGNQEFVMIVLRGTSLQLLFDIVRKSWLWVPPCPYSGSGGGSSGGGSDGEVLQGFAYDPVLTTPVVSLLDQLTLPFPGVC
Put plainly: cryo-EM structure.

In assay [4] the target is T3, LFY-40 (LEAFY lacking the first 40 aa), yeast two-hybrid construct (Arabidopsis thaliana) (UniProt Q00958).
T3 sequence: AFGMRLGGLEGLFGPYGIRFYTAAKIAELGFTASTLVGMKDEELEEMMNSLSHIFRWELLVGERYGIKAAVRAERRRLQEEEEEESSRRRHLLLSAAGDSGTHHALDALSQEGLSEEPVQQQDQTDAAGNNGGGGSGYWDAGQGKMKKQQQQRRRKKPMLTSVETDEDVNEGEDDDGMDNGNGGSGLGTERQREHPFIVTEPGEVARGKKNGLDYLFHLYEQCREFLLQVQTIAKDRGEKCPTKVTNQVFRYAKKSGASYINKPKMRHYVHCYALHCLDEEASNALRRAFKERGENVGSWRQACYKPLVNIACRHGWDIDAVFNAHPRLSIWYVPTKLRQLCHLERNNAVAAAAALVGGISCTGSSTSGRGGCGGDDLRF
Put plainly: two-hybrid.

“ASK1-UFO complex, recombinant (from UniProt Q39255 1-160; Q39090 1-442)”: the binding entry in assay [1] and in assay [2] was “binds” in each case.
“UFOΔFbox-3xFLAG, recombinant (from UniProt Q39090 91-442) (domain or fragment)”: the binding entry in assay [1] is reported as “binds”.

B1: ASK1 in the purified ASK1-UFO-LFY-DBD complex (natural protein)
chain: MSAKKIVLKSSDGESFEVEEAVALESQTIAHMVEDDCVDNGVPLPNVTSKILAKVIEYCKRHVEAAASKAEAVEGAATSDDDLKAWDADFMKIDQATLFELILAANYLNIKNLLDLTCQTVADMIKGKTPEEIRTTFNIKNDFTPEEEEEVRRENQWAFE
B1: the binding entry in assay [3] was “binds”.

B2: UNUSUAL FLORAL ORGANS (UFO), yeast two-hybrid construct of Figures S2F and S5D (protein, UniProt Q39090 1-442)
chain: T2 sequence
Take B2: the binding entry in assay [4] is “binds”.
